The results in this text go back to paper PMC5928155, “Sak4 of Phage HK620 Is a RecA Remote Homolog With Single-Strand Annealing Activity Stimulated by Its Cognate SSB Protein” (Frontiers in Microbiology, 2018).

Results are given in words; binding and its absence hold for the method and conditions named. Some binding calls cover weakened binding; strength is not graded here.

Assay [1] has as its target SSB_(HK620), wild-type HkaK protein from phage HK620 (phage HK620) (UniProt Q9AZ30). Put plainly: SEC; as the gel filtration assay, with ATP added to the reaction and column buffer; data not shown; no ssDNA; both purified. A general note: In gel filtration, larger molecules generally elute earlier.
For assay [2] the target is unchanged. Kind of assay: cross-linking; 1 mM Sulfo-EGS, 20 min at 20°C; 2 µg of each protein alone or together in 20 mM Hepes pH 7.5, 150 mM NaCl, 50% glycerol, with or without 1 mM ATP; SDS-PAGE and Coomassie; no ssDNA; both purified.

B1: SSB_(HK620), wild-type HkaK protein from phage HK620 (natural protein, UniProt Q9AZ30 1-195, looked up)
chain: MSNVIFTYNEEAALTAGQGGFINETGAHIITITEAELKQSEKGAKFIEFSGESDDGRKIQYLSVCVQKNDGTENKFGANVVHAMMGCAGIGQLTQHMVSASKFVAPEFHGKKIGLVLQKVLTTNKKTGADSYQMEIRIPFIAQTGQTLKEKAVGKQPETIANMVASLKDKDNRSKNVSQNHADDYGYSQNDYPPF
notes: HkaK (first annotated Abc1) of phage HK620, a distant SSB homolog (Pfam DUF669); produced untagged; monomer 21.3 kDa; Untagged; also called Abc1_(HK620); HkaK/Abc1_(HK620); source: E. coli ER2566 with pSMG279, purified (PEI, ammonium sulfate, HiTrap Heparin)
Regarding B1, the binding result in assay [1] and in assay [2] was “binds” throughout.
